Data published in patent US20220306734A1 (H LUNDBECK A S, published 2022).
Results are given in words; binding and its absence hold for the method and conditions named. Some binding calls cover weakened binding; strength is not graded here.

Target: cynomolgus monkey mGluR5 extracellular domain (monkey-mGluR5-ECD) (cynomolgus monkey)
Experiment: HTRF, soluble ECD

| Binder | binding |
| --- | --- |
| mGluR5 Ab1 (antibody, V domains shown, Rabbit variable regions on human heavy and light chain constant regions (chimeric)) VH: QQQLEESGGGLVKPGGTLTLTCKVSGIDFSSYYYMCWVRQAPGKGLEWIACIYAGDGGTYYASWAKGRFTSSKTSSTTVTLQMTSLTAADTATYFCARGSGVGSYGYSLWGPGTLVTVSS VL: DIVMTQTPASVEAAVGGTVTIKCQASESIYSNLAWYQQKPGQPPKLLIYRASNLESGVPSRFKGSGSGTEFTLTISDLECADAATYYCQGYYASTTTNAFGGGTEVVVKR | binds |
| mGluR5 Ab4 (antibody, V domains shown, Rabbit variable regions on human heavy and light chain constant regions (chimeric)) VH: QQQLEESGGGLVKPGGTLTLTCKGSGIDFNDYQYMCWVRQAPGKGLEWIACIYNGDGETYYAHWAKGRFTISKTSSTTVTLQMTSLTAADTATYFCARGSGVGSYGYNFWGPGTLVTVSS VL: DIVMTQTPASVEAAVGGTVTIKCQASESIYSNLAWYQQKAGQPPKLLIYRASNLASGVPSRFKGSGSGTEFTLTISDLECADAATYYCQGYYASTVTNGFGGGTEVVVKR | binds |
| mGluR5 Ab2 (antibody, V domains shown, Rabbit variable regions on human heavy and light chain constant regions (chimeric)) VH: QQQLEESGGGLVKPGGTLTLTCKASGIDFSGYYYMCWVRQAPGKGLEWIACVYTGDGGTYYASWAKGRFTISKTSSTTVTLQMTSLTAADTATYFCARGSGVGSYGYNLWGQGTLVTVSS VL: DIVMTQTPASVEAAVGGTVTIKCQASESIYSNLAWYQQKPGQPPKLLIYRASNLESGVPSRFKGSGSGTEFTLTISDLECADAATYYCQGYYAITTTNAFGGGTEVVVKR | binds |
| mGluR5 Ab6 (antibody, V domains shown, Rabbit variable regions on human heavy and light chain constant regions (chimeric)) VH: QSLEESGGRLVTPGGTLTLTCTVSGIDLSSYAMSWVRQAPGKGLEWIGIIYASGNTWYANWVKGRFTISKTSTTVDLKMTSPTTEDTATYFCARDSSATFNYLDLWGQGTLVTVSS VL: AFHMTQTPASMEVAVGGTVTMKCQASESIDTYLNWYQQKPGQPPKLLIYQASKLASGVPSRFKGSGSGTEFTLTISGVECADAATYYCQQGWSTNDVDNVFGGGTEVVVKR | binds |
| mGluR5 Ab10 (antibody, V domains shown, Rabbit variable regions on human heavy and light chain constant regions (chimeric)) VH: QSLEESGGRLVTPGTPLTLTCTVSGIDLSSYAVGWVRQAPGKGLEYIGIIYASGNTWYASWVKGRFTISKTSTTVDLKMTSLTTEDTATYFCARGHGATYDYFNLWGPGTLVTVSS VL: AYDMTQTPASVEVAVGGTVTIKCQASQSISSWLAWYQQKPGQPPKLLIYDASDLASGVPSRFKGSGSGTEYTLTISGVQCDDAATYYCQQGLATANVDNVFGGGTEVVVKR | binds |
| mGluR5 Ab11 (antibody, V domains shown, Rabbit variable regions on human heavy and light chain constant regions (chimeric)) VH: QSLEESGGGLVKPGGTLTLTCTASGFSFSSSYWICWVRQAPGKGLEWIGCIYGSTDAYNANWAKGRFAISQTSSTTVTLQMTSLPAADTATYFCARHDGDIGWTLDLWGPGTLVTVSS VL: AYDMTQTPASVEVAVGGTVTIKCQASLTIGTRLAWYQQKPGQPPKLLIYKASTLASGVSSRFKGSGSGTQFALTISDLECADAATYYCQQAAYVTDIDNAFGGGTEVVVKR | binds |
| mGluR5 Ab8 (antibody, V domains shown, Rabbit variable regions on human heavy and light chain constant regions (chimeric)) VH: QSVEESGGRLVTPGTPLTLTCSVSGIDLSSYAMSWVRQAPGKGLEWIGVIYASGSTYYASWAKGRFTISKTSTTVDLKITSPTTGDTATYFCVRDTTATYNYFNLWGQGTLVTVSS VL: AYDMTQTPASVEVAVGGTATIKCQASQSIYNYLAWYQQKPGQPPKLLIYEASTLASGVPSRFKGSGSGTEFTLTISDLECADAATYYCQQSLSPSNVGRRVFGGGTEVVVKR | binds |
| mGluR5 Ab12 (antibody, V domains shown, Rabbit variable regions on human heavy and light chain constant regions (chimeric)) VH: QSVEESGGRLVTPGTPLTLTCTVSGIDLSSNAMGWVRQAPGKGLEWIGIIYASGNAWYANWVKGRFTISKTSTTVDLKITSPTTEDTATYFCARDATATWDYFNLWGQGTLVTVSS VL: AYDMTQTPSSVSAAVGGTVTIKCQASQSISNWLSWYQQKPGQPPKLLIYRASTLASGVSSRFSGSGSGTEFTLTISDLECADAATYYCQQGYSVANVDNAFGGGTEVVVKR | binds |

Results, then the binder that gave them:

| binding | Binder |
| --- | --- |
| binds | mGluR5 Ab9 (antibody, V domains shown, Rabbit variable regions on human heavy and light chain constant regions (chimeric)) VH: QSVEESGGRLVTPGTPLTLTCTVSGFSLNNYAMNWIRQAPGKGLEWIGIIYGSGSTYYASWAKGRFTASKTSTTVDLKMTSLTTEDTATYFCARDELAAGINYFTLWGQGTLVTVSS VL: ALVMTQTPASVEVAVGGTVTIKCQASQNIIDWCSWYQQKLGQPPKLLIYEASKLASGVPSRFKGSGSGTQFTLTISGVECADAATYYCQQGYSPSGVDNVFGGGTEVVVKR |
| binds | mGluR5 Ab5 (antibody, V domains shown, Rabbit variable regions on human heavy and light chain constant regions (chimeric)) VH: QEQLVESGGGLVQPEGSLTLTCTASGIDFSSGYFMCWVRQAPGKGLEWIACISPYSDNTWYANWAKGRFTISKTSSTTVTLQMTSLTAADTAAYRCARTMAIGAYNPFKLWGQGTLVTVSS VL: ALVMTQTPSSVSAAVGGTVTINCQASQNIYSNLAWYQQKPGQRPKLLIYDASDLASGVSSRVKGSGSGTEFTLTISDLECADAATYYCQGYYSGNAFGGGTEVVVKR |
| binds | mGluR5 Ab7 (antibody, V domains shown, Rabbit variable regions on human heavy and light chain constant regions (chimeric)) VH: QSVEESGGRLVTPGTPLTLTCTVSGFSLSRYAMGWVRHVPGKGLEWIGIIYASGSTYYASWAKGRFTISKTSTTVDLKITSPTTEDTATYFCARSRTATYDAVDPWGPGTLVTVSS VL: AYDMTQTPASVSEPVGGTVTIKCQASQSISSYLSWYQQKPGQPPKLLIYEASTLASGVSSRFKGSGSGTEYTLTISDLECDDAAAYYCQQDLSGSNLDNSFGGGTEVVVKR |
